Test results taken from article PMC10442334.
Results are given in words; binding and its absence hold for the method and conditions named. Binding seen in cells or lysates may run through a third protein. Some results given as binding are weak or reduced against the parent protein; the word gives no strength.

What was measured:
Experiment in all cases: co-IP; endogenous proteins, chromatin fraction (CSK buffer + 0.5% Triton X-100, DNase I) of U2OS synchronized at G1/S boundary by double-thymidine block; IP anti-NFIB with blots of partners, and IP of partners with blot of NFIB
[1] = molecular target: T1, MCM4 (endogenous) (human (endogenous in U2OS)) (UniProt P33991)
T1 sequence: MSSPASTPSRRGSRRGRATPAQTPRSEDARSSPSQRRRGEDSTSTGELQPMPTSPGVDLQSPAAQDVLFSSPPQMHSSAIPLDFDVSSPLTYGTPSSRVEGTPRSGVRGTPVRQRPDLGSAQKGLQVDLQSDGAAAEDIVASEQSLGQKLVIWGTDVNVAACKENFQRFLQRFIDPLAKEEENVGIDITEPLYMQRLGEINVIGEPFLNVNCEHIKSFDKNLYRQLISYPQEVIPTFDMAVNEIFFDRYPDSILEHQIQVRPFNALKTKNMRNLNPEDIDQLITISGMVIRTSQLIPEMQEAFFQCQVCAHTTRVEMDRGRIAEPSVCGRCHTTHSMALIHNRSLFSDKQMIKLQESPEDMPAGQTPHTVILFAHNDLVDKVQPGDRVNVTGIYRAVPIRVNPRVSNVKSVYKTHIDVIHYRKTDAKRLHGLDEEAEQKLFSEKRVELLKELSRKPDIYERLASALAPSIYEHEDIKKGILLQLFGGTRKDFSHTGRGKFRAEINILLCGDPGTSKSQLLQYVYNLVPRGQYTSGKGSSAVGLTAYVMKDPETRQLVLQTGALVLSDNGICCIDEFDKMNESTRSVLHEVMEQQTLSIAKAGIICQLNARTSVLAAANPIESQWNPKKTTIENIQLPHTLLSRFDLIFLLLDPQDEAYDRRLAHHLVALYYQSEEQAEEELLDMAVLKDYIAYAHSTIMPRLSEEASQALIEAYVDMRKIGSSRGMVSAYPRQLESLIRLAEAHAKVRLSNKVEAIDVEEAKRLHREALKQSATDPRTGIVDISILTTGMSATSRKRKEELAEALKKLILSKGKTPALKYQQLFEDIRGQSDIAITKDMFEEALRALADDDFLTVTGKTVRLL

[2] = molecular target: MCM7 (endogenous) (human (endogenous in U2OS)) (UniProt P33993)
[3] = molecular target: T2, MCM6 (endogenous) (human (endogenous in U2OS)) (UniProt Q14566)
T2 sequence: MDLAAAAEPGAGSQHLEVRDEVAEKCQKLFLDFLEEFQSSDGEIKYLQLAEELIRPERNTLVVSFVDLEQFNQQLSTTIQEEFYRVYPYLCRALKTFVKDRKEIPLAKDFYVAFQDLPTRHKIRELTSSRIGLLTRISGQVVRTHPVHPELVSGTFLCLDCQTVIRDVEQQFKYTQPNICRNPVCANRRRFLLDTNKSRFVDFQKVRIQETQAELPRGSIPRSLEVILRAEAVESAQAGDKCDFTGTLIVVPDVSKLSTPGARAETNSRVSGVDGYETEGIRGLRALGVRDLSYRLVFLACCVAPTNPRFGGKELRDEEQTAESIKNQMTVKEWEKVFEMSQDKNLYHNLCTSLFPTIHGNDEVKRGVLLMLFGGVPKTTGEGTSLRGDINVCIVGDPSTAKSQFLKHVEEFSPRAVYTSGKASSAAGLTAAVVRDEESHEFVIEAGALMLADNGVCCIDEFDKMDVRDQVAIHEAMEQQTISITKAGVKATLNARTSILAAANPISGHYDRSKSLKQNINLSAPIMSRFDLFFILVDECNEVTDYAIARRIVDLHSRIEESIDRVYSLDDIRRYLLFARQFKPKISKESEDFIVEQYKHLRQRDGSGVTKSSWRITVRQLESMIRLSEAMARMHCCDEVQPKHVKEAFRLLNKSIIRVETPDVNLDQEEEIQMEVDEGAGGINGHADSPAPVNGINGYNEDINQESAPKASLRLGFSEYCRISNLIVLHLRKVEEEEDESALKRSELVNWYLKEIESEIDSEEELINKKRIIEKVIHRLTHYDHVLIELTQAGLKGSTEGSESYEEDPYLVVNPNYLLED

- binding [1]: binds
- binding [2]: binds
- binding [3]: binds
Substance: NFIB (endogenous) (from UniProt O00712-5 1-494)
